According to article doi:10.1101/2025.01.09.632080:
These are yes or no findings as the source states them, for the method shown. For some assays here: In cells and extracts the contact can be indirect. Some binding calls cover weakened binding; strength is not graded here. For some assays here: Tags and fused reporters may be left off the sequences shown.

Sequences of proteins named here, by UniProt entry; tags and fusion partners are left off.
UniProt O60826: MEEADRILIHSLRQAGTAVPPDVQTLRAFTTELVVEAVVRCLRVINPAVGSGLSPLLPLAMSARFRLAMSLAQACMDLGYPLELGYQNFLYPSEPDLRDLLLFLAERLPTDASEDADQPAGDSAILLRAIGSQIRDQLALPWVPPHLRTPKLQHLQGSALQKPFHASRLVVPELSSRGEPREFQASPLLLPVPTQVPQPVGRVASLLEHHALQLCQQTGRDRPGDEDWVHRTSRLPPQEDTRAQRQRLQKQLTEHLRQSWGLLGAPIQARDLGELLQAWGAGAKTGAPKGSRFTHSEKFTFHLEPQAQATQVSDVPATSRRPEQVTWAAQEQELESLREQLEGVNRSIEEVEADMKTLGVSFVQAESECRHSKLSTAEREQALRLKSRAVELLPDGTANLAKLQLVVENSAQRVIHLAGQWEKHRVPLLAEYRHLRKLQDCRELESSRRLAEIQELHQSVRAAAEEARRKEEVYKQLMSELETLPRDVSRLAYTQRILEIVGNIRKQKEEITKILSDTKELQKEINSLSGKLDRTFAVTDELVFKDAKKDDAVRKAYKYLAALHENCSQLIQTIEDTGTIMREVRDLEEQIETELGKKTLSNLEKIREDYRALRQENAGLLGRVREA

B1: TRIM72, endogenous in mouse tissues (protein, UniProt Q1XH17 1-477)
chain: MSAAPGLLRQELSCPLCLQLFDAPVTAECGHSFCRACLIRVAGEPAADGTVACPCCQAPTRPQALSTNLQLSRLVEGLAQVPQGHCEEHLDPLSIYCEQDRTLVCGVCASLGSHRGHRLLPAAEAQARLKTQLPQQKMQLQEACMRKEKTVAVLEHQLVEVEETVRQFRGAVGEQLGKMRMFLAALESSLDREAERVRGDAGVALRRELSSLNSYLEQLRQMEKVLEEVADKPQTEFLMKFCLVTSRLQKILSESPPPARLDIQLPVISDDFKFQVWKKMFRALMPALEELTFDPSSAHPSLVVSSSGRRVECSDQKAPPAGEDTRQFDKAVAVVAQQLLSQGEHYWEVEVGDKPRWALGVMAADASRRGRLHAVPSQGLWLLGLRDGKILEAHVEAKEPRALRTPERPPARIGLYLSFADGVLAFYDASNPDVLTPIFSFHERLPGPVYPIFDVCWHDKGKNAQPLLLVGPEQEQA
B2: EGFP-TRIM72 (protein, UniProt Q6ZMU5 1-477)
chain: MSAAPGLLHQELSCPLCLQLFDAPVTAECGHSFCRACLGRVAGEPAADGTVLCPCCQAPTRPQALSTNLQLARLVEGLAQVPQGHCEEHLDPLSIYCEQDRALVCGVCASLGSHRGHRLLPAAEAHARLKTQLPQQKLQLQEACMRKEKSVAVLEHQLVEVEETVRQFRGAVGEQLGKMRVFLAALEGSLDREAERVRGEAGVALRRELGSLNSYLEQLRQMEKVLEEVADKPQTEFLMKYCLVTSRLQKILAESPPPARLDIQLPIISDDFKFQVWRKMFRALMPALEELTFDPSSAHPSLVVSSSGRRVECSEQKAPPAGEDPRQFDKAVAVVAHQQLSEGEHYWEVDVGDKPRWALGVIAAEAPRRGRLHAVPSQGLWLLGLREGKILEAHVEAKEPRALRSPERRPTRIGLYLSFGDGVLSFYDASDADALVPLFAFHERLPRPVYPFFDVCWHDKGKNAQPLLLVGPEGAEA

Experiments:
[1] = target: TRIM72, endogenous in mouse tissues (mouse (endogenous in skeletal muscle and cortex)) (UniProt Q1XH17); test: SDS-PAGE and western blot of tissue lysate
[2] = target: C-terminal Myc-tagged CCDC22 (CCDC22-Myc) (UniProt O60826); test: co-IP

| Binder | binding [1] | binding [2] |
| --- | --- | --- |
| B1 | binds |  |
| B2 |  | binds |
